Results from one PubChem assay

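Genome-wide siRNA knockdown in TC32 Ewing sarcoma cells, comparing luciferase light from an NR0B1-promoter reporter with a CMV-promoter reporter 48 hours after transfection.
Each siRNA was applied at 20 nM.
A z-score of the log NR0B1-over-CMV signal, less the median of siRNAs with the same seed; more negative means a stronger specific loss of the NR0B1 reporter.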

This is part of the screen; most of the strongest results are not listed here.
Sequences are the guide (antisense) strand, without overhang.

strand: UACUGUACUUGAUAGAGUU
gene: CECR1
seed-corrected z-score: 0.305

strand: UGCGUUUCAUCCCACGAUC
gene: KLHDC9
seed-corrected z-score: 0.6231

strand: AACCUUCUCUAAAUGGUCC
gene: WARS2
seed-corrected z-score: 0.3816

strand: UAAAAUCUGUCCUUAACUC
gene: CNIH3
seed-corrected z-score: 0.2304

strand: UUUCGUUCCCAUCCCACCG
gene: DRAP1
seed-corrected z-score: 0.8381

strand: UAUGUCGAUGUCGUUCUCG
gene: GADD45G
seed-corrected z-score: 0.6252

strand: UAUGUAUCUUGUGAUGCUG
gene: ZNF250
seed-corrected z-score: -1.432

strand: AACCUUCUCAUCGAAAACU
gene: HEBP2
seed-corrected z-score: -1.53

strand: AAAGUUACUCUCGAACAUG
gene: FAM71E2
seed-corrected z-score: 0.5972

strand: UAAGAUAUGAUCUUACAAC
gene: AK4
seed-corrected z-score: 0.1073

strand: UUGAAUGCUACAGUCAUUG
gene: PTPN18
seed-corrected z-score: 0.6877

strand: UGGUCUACCAACACUACUG
gene: HADH
seed-corrected z-score: -0.1405

strand: UCUUCGCUGACCGACGUGU
gene: OR13J1
seed-corrected z-score: 0.4374

strand: UUCAUCAAUAUGGUCAAUC
gene: LUM
seed-corrected z-score: 0.03753

strand: AGGUUUUUCAGGAUCCUUG
gene: RTP3
seed-corrected z-score: -0.8859

strand: UCUGUAGCCGCUAAGAUUC
gene: SKP2
seed-corrected z-score: -0.2152

strand: UACCUGAAAGCUAUAGGCC
gene: SETD6
seed-corrected z-score: -0.6392

strand: UAAGAAAAUGCUGUAGAGG
gene: DIO3
seed-corrected z-score: 0.6533

strand: UAAGCGAACUGAGACCCUC
gene: COL5A2
seed-corrected z-score: 0.002309

strand: UUGACUGCAAAGGCGAUUG
gene: PDZK1IP1
seed-corrected z-score: -0.423

strand: CAACAUAAUAGACACGUCC
gene: WWP2
seed-corrected z-score: -0.08369

strand: UGUCCAUGAAUUCAGUUCC
gene: XRN2
seed-corrected z-score: 0.479

strand: AUUAUGUUGAUCUUAAUGG
gene: OR52E4
seed-corrected z-score: -0.5626

strand: UGUGAAAAACCGUCUCAGC
gene: TRAF3IP2-AS1
seed-corrected z-score: -0.7098

strand: UCCGAUGUCACUGCUGUCC
gene: TWIST2
seed-corrected z-score: -0.1037

Source: PubChem BioAssay AID1159506 (NCATS, 2015).